Source: article PMC4895218, “Structural flexibility of the periplasmic protein, FlgA, regulates flagellar P-ring assembly in Salmonella enterica” (Scientific Reports, 2016)
Results are given in words; binding and its absence hold for the method and conditions named. In cells and extracts the contact can be indirect. Some binding calls cover weakened binding; strength is not graded here. Sequences can lack the tags named with a protein.

Molecular target: T1, N-terminally His-tagged FlgI (Salmonella enterica serovar Typhimurium, UniProt P15930 20-365)
T1 construct: FlgI, flagellar P-ring component protein, Salmonella enterica serovar Typhimurium; Probably without its Sec signal peptide (surmise); also called His-FlgI; source: E. coli Origami2 (DE3), co-expressed, in cell extract (pull-down); purified (SPR); not shown: His tag, N-terminal, kept
T1 sequence (looked up): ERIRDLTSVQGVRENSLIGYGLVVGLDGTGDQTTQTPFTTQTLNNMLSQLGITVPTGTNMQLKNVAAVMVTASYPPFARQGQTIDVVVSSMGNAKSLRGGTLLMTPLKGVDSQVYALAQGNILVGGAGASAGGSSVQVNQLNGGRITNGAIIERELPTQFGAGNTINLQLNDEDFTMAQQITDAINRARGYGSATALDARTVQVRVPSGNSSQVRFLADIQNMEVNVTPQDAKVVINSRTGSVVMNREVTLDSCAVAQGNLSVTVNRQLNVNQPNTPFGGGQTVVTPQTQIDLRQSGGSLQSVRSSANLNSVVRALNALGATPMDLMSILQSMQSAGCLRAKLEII
Experiment: pull-down; TALON metal affinity spin column; cell extracts of E. coli Origami2 (DE3) co-expressing His-FlgI and FlgA proteins; wash 10 mM imidazole, elution 300 mM imidazole; immunoblot with antibodies against FlgA and FlgI

- binding: binds
B1: FlgA (purified, histidine tag removed) (natural protein, Salmonella enterica serovar Typhimurium)
chain: QDINAQLTTWFSQRLAGFSDEVVVTLRSSPNLLPSCEQPAFSMTGSAKLWGNVNVVARCANEKRYLQVNVQATGNYVAVAAPIARGGKLTPANVTLKRGRLDQLPPRTVLDIRQIQDAVSLRDLAPGQPVQLTMIRQAWRVKAGQRVQVIANGEGFSVNAEGQAMNNAAVAQNARVRMTSGQIVSGTVDSDGNILINL
notes: FlgA, Salmonella enterica serovar Typhimurium; numbers count on: the mature protein (Q1-L198); The crystallised FlgA was another construct (C-terminal hexa-histidine-tagged precursor purified from the periplasm of E. coli); source: purified; N-terminal-fused histidine tag removed with thrombin prior to gel filtration; not shown: His tag, N-terminal, cleaved
